Results reported in US12384792B2, “Solid forms of isoquinolinones, and process of making, composition comprising, and methods of using the same” (Twelve Therapeutics, Inc., priority 2015, dated 2025).
For some of these results: At least one read-out could not be matched to a standard name with certainty. For some of these results: At least one compound was matched to its structure with a doubt left.

Tests used:
[1] = system: hematological malignancies; settings: cited from earlier work
CCL3, CCL4, and CXCL13 = settings: CLL; cited from earlier work
[2] = Permeability across blood-brain-barrier
BTK pathway = assay: Effect on BTK pathway
MEK pathway = assay: Effect on MEK pathway

| SMILES | lymph node reduction and redistribution of lymphocytes into the circulation ([1]; CLL patients) | activity in CLL ([1]; phase 1 trial, CLL patients with poor prognostic characteristics) | activity in mantle cell lymphoma and refractory non-Hodgkin's lymphoma ([1]; single agent) | expression of stromal and T-cell derived factors including CCL3, CCL4, and CXCL13 (CCL3, CCL4, and CXCL13) | permeability cross blood-brain-barrier [2] | effect on BTK pathway (BTK pathway) | effect on MEK pathway (MEK pathway) |
| --- | --- | --- | --- | --- | --- | --- | --- |
| CC[C@H](Nc1ncnc2[nH]cnc12)c1nc2cccc(F)c2c(=O)n1-c1ccccc1 [CAL-101] | rapid lymph node reduction | showed activity | active | suppresses |  |  |  |
| C[C@H](NC(=O)c1c(N)nn2cccnc12)c1cc2cccc(C#Cc3cnn(C)c3)c2c(=O)n1-c1ccccc1 [Compound 1, (S)-2-amino-N-(1-(8-((1-methyl-1H-pyrazol-4-yl)ethynyl)-1-oxo-2-phenyl-1,2-dihydroisoquinolin-3-yl)ethyl)pyrazolo[1,5-a]pyrimidine-3-carboxamide] |  |  |  |  | good permeability | does not affect | does not affect |
